# PubChem BioAssay AID743458 – Peter MacCallum Cancer Centre | 2014
# Assay: 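Retest earlier hits with independent siRNAs per gene for restoring vorinostat sensitivity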 (follow-up of hits)
# Cells: human HCT116-VR colon cancer cells made resistant to vorinostat
# Knock-down reagent: single siRNA or pool against human genes, 25 nM per single siRNA
# Time to read-out: about 72 h after transfection, including 24 h of drug
# Treatment: vorinostat, 2.5 µM final, for 24 h
# Measurement: 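Live-cell fluorescent viability and luminescent caspase 3/7 activity after vorinostat treatment, background subtracted, mean of duplicate plates, as fold change over mock-transfected wells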
# Direction: viability relative to mock: higher = more living cells than mock; caspase activity relative to mock: higher = more apoptosis than mock
# Hit rule: 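An siRNA counts as active if classed as reduced viability or as caspase activation, otherwise inactive; a hit class needed wells that remained healthy in the absence of drug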
# Here is a random part of about 1,800 reagents. 732 of all reagents (41%) count as active. 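Calls are per siRNA reagent; a gene was deemed confirmed only if most of its four siRNAs scored.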 Entries without a mark were called inactive. Reagents against one gene are numbered here. Reagent sequences are not shown.
Gene,reagent no.,viability relative to mock,caspase activity relative to mock,viability hit class,caspase hit class
COMMD2 (COMM domain containing 2),1,0.26 (active),4.88,reduced viability,caspase activation
COMMD2 (COMM domain containing 2),2,0.66,1.64,no change,no change
COMMD2 (COMM domain containing 2),3,0.86,1.21,no change,no change
COMMD2 (COMM domain containing 2),4,0.86,1.17,no change,no change
FAM3C (FAM3 metabolism regulating signaling molecule C),1,0.84 (active),3.15,no change,caspase activation
FAM3C (FAM3 metabolism regulating signaling molecule C),2,0.74 (active),2.98,no change,caspase activation
FAM3C (FAM3 metabolism regulating signaling molecule C),3,0.9,1.44,no change,no change
FAM3C (FAM3 metabolism regulating signaling molecule C),4,0.68,2.12,no change,no change
"ASH2L (ASH2 like, histone lysine methyltransferase complex subunit)",1,0.81,1.27,no change,no change
"ASH2L (ASH2 like, histone lysine methyltransferase complex subunit)",2,0.73 (active),4.06,no change,caspase activation
"ASH2L (ASH2 like, histone lysine methyltransferase complex subunit)",3,0.74,1.52,no change,no change
"ASH2L (ASH2 like, histone lysine methyltransferase complex subunit)",4,0.69 (active),2.85,no change,caspase activation
RPS28 (ribosomal protein S28),1,0.37 (active),0.58,reduced viability,no change
RPS28 (ribosomal protein S28),2,0.3,0.58,no change,no change
RPS28 (ribosomal protein S28),3,0.28 (active),0.52,reduced viability,no change
RPS28 (ribosomal protein S28),4,0.3 (active),1.54,reduced viability,no change
MSANTD1 (Myb/SANT DNA binding domain containing 1),1,0.82 (active),4.63,no change,caspase activation
MSANTD1 (Myb/SANT DNA binding domain containing 1),2,0.16 (active),4.05,reduced viability,caspase activation
MSANTD1 (Myb/SANT DNA binding domain containing 1),3,0.9 (active),2.65,no change,caspase activation
MSANTD1 (Myb/SANT DNA binding domain containing 1),4,0.78,2.14,no change,no change
RNF122 (ring finger protein 122),1,1.02,1.7,no change,no change
RNF122 (ring finger protein 122),2,0.76,2.2,no change,no change
RNF122 (ring finger protein 122),3,0.97,1.56,no change,no change
RNF122 (ring finger protein 122),4,0.84,0.73,no change,no change
NDUFA7 (NADH:ubiquinone oxidoreductase subunit A7),1,0.52 (active),2.92,reduced viability,caspase activation
NDUFA7 (NADH:ubiquinone oxidoreductase subunit A7),2,0.77,2.45,no change,no change
NDUFA7 (NADH:ubiquinone oxidoreductase subunit A7),3,0.62,0.8,no change,no change
NDUFA7 (NADH:ubiquinone oxidoreductase subunit A7),4,1.07,1.44,no change,no change
NPEPL1 (aminopeptidase like 1),1,0.78,0.66,no change,no change
NPEPL1 (aminopeptidase like 1),2,0.78,1.03,no change,no change
NPEPL1 (aminopeptidase like 1),3,0.54 (active),1.73,reduced viability,no change
NPEPL1 (aminopeptidase like 1),4,0.74,0.83,no change,no change
RNF121 (ring finger protein 121),1,0.77 (active),3.81,no change,caspase activation
RNF121 (ring finger protein 121),2,0.91,1.89,no change,no change
RNF121 (ring finger protein 121),3,0.97,1.49,no change,no change
RNF121 (ring finger protein 121),4,0.72,2.31,no change,no change
RPS7 (ribosomal protein S7),1,0.23,1.7,no change,no change
RPS7 (ribosomal protein S7),2,0.29 (active),0.52,reduced viability,no change
RPS7 (ribosomal protein S7),3,0.26 (active),0.45,reduced viability,no change
RPS7 (ribosomal protein S7),4,0.22 (active),0.62,reduced viability,no change
E2F2 (E2F transcription factor 2),1,0.96,1.4,no change,no change
E2F2 (E2F transcription factor 2),2,0.81,1.98,no change,no change
E2F2 (E2F transcription factor 2),3,0.22 (active),2.48,reduced viability,no change
E2F2 (E2F transcription factor 2),4,0.62,1.77,no change,no change
STN1 (STN1 subunit of CST complex),1,0.66,1.51,no change,no change
STN1 (STN1 subunit of CST complex),2,0.18,3.51,no change,no change
STN1 (STN1 subunit of CST complex),3,0.7 (active),5.21,no change,caspase activation
STN1 (STN1 subunit of CST complex),4,0.76 (active),3.88,no change,caspase activation
POLR2G (RNA polymerase II subunit G),1,0.32 (active),3.31,reduced viability,caspase activation
POLR2G (RNA polymerase II subunit G),2,0.54 (active),3.38,reduced viability,caspase activation
POLR2G (RNA polymerase II subunit G),3,0.34 (active),6.04,reduced viability,caspase activation
POLR2G (RNA polymerase II subunit G),4,0.36 (active),3.04,reduced viability,caspase activation
NOAZFP (nucleolar atypical zinc finger),1,0.64,1.65,no change,no change
NOAZFP (nucleolar atypical zinc finger),2,0.96,1.23,no change,no change
NOAZFP (nucleolar atypical zinc finger),3,1.03,0.86,no change,no change
NOAZFP (nucleolar atypical zinc finger),4,0.92,0.82,no change,no change
PLVAP (plasmalemma vesicle associated protein),1,0.75 (active),3.61,no change,caspase activation
PLVAP (plasmalemma vesicle associated protein),2,0.4 (active),2.41,reduced viability,no change
PLVAP (plasmalemma vesicle associated protein),3,0.86,1.21,no change,no change
PLVAP (plasmalemma vesicle associated protein),4,0.94,0.99,no change,no change
